# The list shows a part of the results, in another mix than the full data. At the low end of the ranking the order means little.
# Biological target: T1, ETV3 (UniProt P41162-2)
# T1 sequence: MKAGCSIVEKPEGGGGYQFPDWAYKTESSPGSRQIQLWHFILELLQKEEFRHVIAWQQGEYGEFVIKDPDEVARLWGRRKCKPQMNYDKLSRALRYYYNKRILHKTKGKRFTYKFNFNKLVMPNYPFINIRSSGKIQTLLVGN
# Test: DAPPL (digital affinity profiling via proximity ligation, sequencing)
# Conditions: 10 mM Tris-HCl pH 7.5, 50 mM NaCl, 1 mM DTT, 4% glycerol, room temperature, 30 min; GST-TFs on glutathione beads, 16-mer random dsDNA library, 0.1% …; high values mean tight binding; double strand, one strand shown; scale: fold enrichment (6-mer frequency, TF over GST control)
row,Sequence,binding signal
1,TCGCGC,0.975
2,TTATTT,1.41
3,CTTATG,1.64
4,CATATA,1.09
5,ATCCGA,1.11
6,AACATC,1.5
7,TATCGT,1.15
8,TTTAAA,1.22
9,TGTGGA,1.02
10,CTATAC,1.24
11,AAGGAA,1.37
12,CTTTTG,1.24
13,ACCCCG,1.11
14,GCTTCG,1.37
15,GGCTCA,1.23
16,CTGAGC,1.01
17,CACTTA,1.24
18,TTTACA,1.22
19,CCTGGA,1.37
20,TAATGA,1.1

# Part of the list above, bar-delimited:
row | Sequence | binding signal
4 | CATATA | 1.09
19 | CCTGGA | 1.37

# Next records

row,Sequence,binding signal
1,TTTCAG,1.27
2,ACACGA,0.997
3,CTGCTA,1.39
4,ATAATT,1.32
5,TGCTTC,2.21
6,ATCATT,0.991
7,TGTTAA,1.16
8,CTAGCT,1.24
9,CGCTAG,0.99
10,CTTTTT,1.24
11,GCTCCT,1.37
12,CTTGCA,1.45
13,GTCCCT,1.26
14,TTCAGC,1.32
15,TGGCCT,1.35
16,ATTCTG,1.26
17,ACTTTA,1.19
18,CGTAAT,1.19
19,GAAGCT,1.75
